PubChem BioAssay AID602196 – INSERM – 2012
Here is an unselected part of about 23,000 reagents. Of all reagents, 455 (2%) were called active. 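Active includes both protection and sensitisation; some change values fall well beyond the stated -50 to +50 range.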 Entries without a mark were called inactive. The numbers tell different reagents against one gene apart. Further read-outs or replicates are left out here. The record does not give: the amount of reagent.

Test: 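Modifiers of cisplatin sensitivity in A549 cells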
Cells: human A549 lung cancer cells
Knock-down reagent: siRNA pair against human genes
Time to read-out: 48 h transfection before cisplatin; time from cisplatin to read-out not stated
Treatment: cisplatin at a dose killing half of control-siRNA cells; exact dose and duration not given
Read-out: 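Cisplatin cell death as a shift from the 50% death seen with control siRNA; siRNAs toxic or growth-blocking alone scored 0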
Scale: two-siRNA summed score (-2 to +2): higher = both siRNAs protect from cisplatin killing; -2 means both sensitise
Rule for the call: 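siRNAs harmful alone (LDH or WST-1) get 0; others get +1 for less and -1 for more cisplatin killing; genes are active when the two siRNAs give the same sign, summing to ±2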
Meaning of the calls: active = both siRNAs shift cisplatin killing the same way; inactive = no consistent shift, or siRNA harmful alone

two-siRNA summed score (-2 to +2), by gene knocked down and reagent
LPP: #1 1
MEIS1: #1 0
GTF2E2: #1 0
SMIM34: #1 0
LOC133185: #1 0
LOC439960: #1 0
LOC400145: #1 0
TBCB: #1 0
PNRC2: #1 0
ZBTB17: #1 0
PIP5K1B: #1 -2 (active)
ZCCHC7: #1 0
LOC400496: #1 0
RPIA: #1 0
LOC440819: #1 1
GINM1: #1 -1
REG1B: #1 0; #2 0
DEAF1: #1 0
BUD23: #1 0
PRAM1: #1 0
ARFGAP2: #1 0
TMEM65: #1 0
NELFE: #1 1

Records above marked active (1):
two-siRNA summed score (-2 to +2), by gene knocked down and reagent
PIP5K1B: #1 -2 (active)

Further records follow.
two-siRNA summed score (-2 to +2), by gene knocked down and reagent
TMEM92: #1 0
DKFZp762F0713: #1 1
LOC440711: #1 0
GGA2: #1 0
S1PR1: #1 0
HCAR1: #1 1
HAUS1: #1 0
METTL2B: #1 0
LOC442218: #1 1
NFYB: #1 0
LOC441385: #1 0
ANTXR1: #1 0
VEGFA: #1 1
FXYD4: #1 -1
LOC389288: #1 0
